The whole screen tested about 52,000 sequences, of which about 210 (0.4%) were called active.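 Rule for the calls: active = gene whose silencing raises cell survival under the drug, median off-target-corrected z-score across its silencing RNAs 2 or more; inactive = the rest.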 The list shows a part of the results.
Test: Resistance to Poly (ADP-Ribose) Polymerase inhibitor: Gene Identification via Genome-wide siRNA Screen
Details: mouse BRCA2 R2336H ES cells, olaparib, CellTiter-Glo viability; hits give high values
How it was run: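 Mouse BRCA2 R2336H ES cells were reverse-transfected with siRNA (20 nM final), treated at 48 h with 500 nM olaparib, and read by CellTiter-Glo after 72 h. Scores: MAD-based z per siRNA, median per gene, seed off-target correction.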
With GGAGAUGAUUAAGUCUGGATT against Pkm2 the z-score was inactive: -0.653. In the case of GGUAAAGCCAAAGAACAAATT against Enpp2, the z-score is reported as inactive: -0.34. For GGUAGCUGAAGAAGACUUCTT against Reg2, the z-score was inactive: -1.39. In the case of GGCCCACAGGAACAUCCUATT against Zbtb8, the z-score is reported as inactive: 0.875. With “GGACAGCUUUGAUUUCAUUTT against C030019F02Rik” the z-score was inactive: 0.0969. With “GGACUGAAUGCAAGUGAAGTT against 4732467B22” the z-score was inactive: 0.419. With GGGUCGUAAUGAGUUCUGGTT against Pparbp the z-score was inactive: 1.15. In the case of GGACAACCUGUUGACCUAGTT against Ube1dc1, the z-score is reported as inactive: 0.475. For GGUGGUUAGAUCUUACGCUTT against BC019731, the z-score was inactive: 0.746. For GGCCAGUCACUCAACCUUATT against Phc1, the z-score was inactive: -2.77. In the case of CCCUUUGCCGAAUACAUUUTT against Dpys, the z-score is reported as inactive: -0.531. In the case of “GGCCAGAAAAUUAAGGAGCTT against 2310003H01Rik”, the z-score is reported as inactive: -0.329. With “GGUCUUCUUUAGUUCAGAATT against 2810427I04Rik” the z-score was inactive: -2.04. In the case of GCAAUCAAGGUUAAAAUUGTT against Slfn2, the z-score is reported as inactive: 0.305. With CCAAACCUGUCUCUUAUCATT against Slco1c1 the z-score was inactive: 0.0923. For CGAAUAUCUGCAUUUAUUGTT against Mbip, the z-score was inactive: -0.521. In the case of GAUGUUUCAGAACAUUCUUTT against Cadps, the z-score is reported as inactive: -0.517. With GGUAUAAUUUAGGUGACUATT against Epc1 the z-score was inactive: -0.16. With CCUCAAUGAAGACCCAUUATT against Kif1b the z-score was inactive: -1.28. For GCCAAUUUGACUUGUAAGUTT against Slc22a3, the z-score was inactive: 0.764. With GGACAGCCCUUCUUUGUCUTT against Il17rb the z-score was inactive: -0.467. For GCCGGUAAAAUUAAGGUGATT against Cyp2j9, the z-score was inactive: 0.623. For GGGAGUAGAGAAGAAGGUGTT against Dpf3, the z-score was inactive: 0.0405. In the case of GCGACUACUACACAGACGATT against Ext2, the z-score is reported as inactive: 0.425. For GCUGUGGAGAAGUGCUACUTT against Sprrl5, the z-score was inactive: 2.65. With CCUCUUAUAUGCAUGUGGCTT against Olfr410 the z-score was inactive: 0.22. With GGAGAAUAAUAAGCUGGAATT against Hap1 the z-score was inactive: 1.14. With “GUCUGCUCAUCGACAGCUATT against 2310066E14Rik” the z-score was inactive: 0.456. With CCAUAUCUCUAUCUACUGGTT against Rs1h the z-score was inactive: 0.417. In the case of GGUGGUUUUCCUCCUCUGUTT against Kdelr3, the z-score is reported as inactive: -0.75. For CCAUCUUACUGAAUACAAATT against Iqgap1, the z-score was inactive: 0.145. With GGAAAUACCGGAACCAGAATT against Ptdsr the z-score was inactive: -0.424. With GCCUCUUAGUAGAGACAGUTT against Nat6 the z-score was inactive: -0.727. For CCAUUUAUGGGUUUUCUCUTT against Taar7b, the z-score was inactive: 1.07. With GCAACUAUUACUUAGCCAUTT against Fgf10 the z-score was inactive: 0.331. With “GGAGGAACCCUCAUUUUAGTT against 1110018J18Rik” the z-score was inactive: 0.903. With GGGAAAAUUUCAAUGAGAGTT against Slc16a10 the z-score was inactive: -0.742. With “GACCAGAUCCAGAAAUCGGTT against 4933434G05Rik” the z-score was inactive: 0.529. With CGAGCAAAUCUCAUUCAAGTT against Oxgr1 the z-score was inactive: 0.347. For GCCUGUCCUAAACUUGACCTT against Cdh13, the z-score was inactive: -0.339. For CCUUCUCUUUGCUCUAUGUTT against Olfr1284, the z-score was inactive: 0.785. With GGAAUGAAACCAAGUAUAATT against Calcb the z-score was inactive: 0.048. In the case of GGCAUUGCAUUCUCACAUGTT against Gabarapl1, the z-score is reported as inactive: -0.106. For GGACUUGGAGACAUUGCUATT against AI447904, the z-score was inactive: -1.21. For GCUGUUUCAAAAGUCAUAUTT against Col11a1, the z-score was inactive: -0.673. For GGCGUAGGGCCAUAUCAUUTT against Olfr109, the z-score was inactive: 0.253. With CGCAAAAACUGGUGUAACCTT against Arhgef1 the z-score was inactive: 0.337. In the case of GGCCUUGAAUAGAAAAUGGTT against Olfr1055, the z-score is reported as inactive: -2.38. With GGCAUUUGCACAGUUUAUGTT against Upp2 the z-score was inactive: 0.239. In the case of GCAGAAUUGAAUAUUAAGCTT against Upk1b, the z-score is reported as inactive: 0.851. With “GCCUUGGCCGAGGUUAAUUTT against 6430402L03Rik” the z-score was inactive: -0.487. In the case of GGAGUAAUGAUAAGCCCUCTT against Tex264, the z-score is reported as inactive: -0.394. For CCCAAUGCUUGGUGCCUUUTT against C1qtnf2, the z-score was inactive: 0.717. In the case of GAAGCACAACCUCGGCUUUTT against Mcpr1, the z-score is reported as inactive: 0.252. For GGACUUGGAACAGAAAAAGTT against Asb8, the z-score was inactive: -0.937. For “CGGUUACUUUUGAAGCUUGTT against 4930415J21Rik”, the z-score was inactive: 0.78. With CGUGCUGGUAACGGAAUUGTT against Ptger2 the z-score was inactive: -0.484. In the case of “GGCACUAAUUUAGACAAAGTT against E230015L20Rik”, the z-score is reported as inactive: -0.149. With “GGAUCAUGCAAACCAAAGCTT against 4930522H14Rik” the z-score was inactive: -0.657. For CGAUUCCUGGACCAUUGUUTT against Tm6sf1, the z-score was inactive: -2.72. For CCAAAGAAGUUGACUUUUCTT against Rhpn2, the z-score was inactive: 0.262. With GGAAAGAAGUAUGCCCACATT against Acp5 the z-score was inactive: 2.84. In the case of GGUUCUCCAGCAAGUGGAUTT against AV125803, the z-score is reported as inactive: -0.0995. With CCAAGGUGAGGACUUUCCATT against Erp29 the z-score was inactive: -0.507. For GGCAGUGUGUUAGAUUCUUTT against Cts3, the z-score was inactive: -0.339. With CCUUUGUUCUGCUCUGUUUTT against Tas2r126 the z-score was inactive: 0.371.
